Results are given in words; binding and its absence hold for the method and conditions named. A result given as binding can be weak or reduced; the word gives no strength.
Molecular target: sarco-endoplasmic reticulum Ca2+-ATPase (SERCA)
Experiment: cryo-EM structure

- binding: binds
B1: phospholamban Asn27-Ala mutant (canine PLN sequence), super-inhibitory pentameric form (protein, UniProt P61012 1-52)
chain: MDKVQYLTRSAIRRASTIEMPQQARQALQNLFINFCLILICLLLICIIVMLL
